Values from PubChem BioAssay AID743454 (Peter MacCallum Cancer Centre, 2014)

Aim: 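Knock-downs lowering viability or raising caspase 3/7 activity in vorinostat-treated resistant cells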 (primary screen)
System: human HCT116-VR colon cancer cells, selected for vorinostat resistance
Knock-down reagent: siRNA pool against human genes, 40 nM siRNA pool
Time to read-out: vorinostat for 24 h, read-out about 72 h after transfection
Challenge: vorinostat at 2.5 µM final
Detection: 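Two measures, CellTiter-Fluor viability and luminescent caspase 3/7 activity, each as fold change against same-plate mock wells, mean of duplicates, then screen-wide robust z-score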
Direction: viability robust z-score: higher = more viable cells than screen typical; caspase robust z-score: higher = more caspase 3/7 activity than screen typical
Hit rule: 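Hits are knock-downs in viability class RV1/RV2 or caspase class CA1/CA2, excluding ones that killed cells in the no-drug cell-count arm; hits then retested with single siRNAs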
This is an unselected part of about 18,000 reagents. 450 of them (2.5%) were called active. 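Single biological run; no consistent viability z cut-off exists, so the class columns, not z-scores, define the calls.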 Entries without a mark were called inactive.

WDR5B | viability hit class: no change; caspase hit class: no change; viability robust z-score: -0.36; caspase robust z-score: 0.22
NXPE4 | viability hit class: no change; caspase hit class: no change; viability robust z-score: 1.59; caspase robust z-score: 0.48
ZNF181 | viability hit class: no change; caspase hit class: no change; viability robust z-score: -0.26; caspase robust z-score: -0.62
SPACA9 | viability hit class: no change; caspase hit class: no change; viability robust z-score: 0.12; caspase robust z-score: -0.06
BEGAIN | viability hit class: no change (active); caspase hit class: CA1 (caspase activation); viability robust z-score: 0.45; caspase robust z-score: 6.15
CIB3 | viability hit class: no change; caspase hit class: no change; viability robust z-score: -0.75; caspase robust z-score: 1.36
PIK3C2B | viability hit class: no change; caspase hit class: no change; viability robust z-score: -0.44; caspase robust z-score: 0.57

Next part (2 carried over from the part before).
CIB3 | viability hit class: no change; caspase hit class: no change; viability robust z-score: -0.75; caspase robust z-score: 1.36
PIK3C2B | viability hit class: no change; caspase hit class: no change; viability robust z-score: -0.44; caspase robust z-score: 0.57
ISL1 | viability hit class: no change; caspase hit class: no change; viability robust z-score: -0.67; caspase robust z-score: 0.06
GRIA1 | viability hit class: no change; caspase hit class: no change; viability robust z-score: 0.26; caspase robust z-score: 0.15
DDX4 | viability hit class: no change; caspase hit class: no change; viability robust z-score: 0.66; caspase robust z-score: -0.08
HSPA1L | viability hit class: no change; caspase hit class: no change; viability robust z-score: 0.72; caspase robust z-score: 0.55
CYP2U1 | viability hit class: no change; caspase hit class: no change; viability robust z-score: -0.32; caspase robust z-score: 1.56
